Among the data in publication PMC7819943, “Rice protein-binding microarrays: a tool to detect cis-acting elements near promoter regions in rice” are binding signal values, retold here.

The list shows a part of the results.

This assay deals with T1, OsSMF1 (Oryza sativa, UniProt Q6ZLB0 1-436).
T1 sequence: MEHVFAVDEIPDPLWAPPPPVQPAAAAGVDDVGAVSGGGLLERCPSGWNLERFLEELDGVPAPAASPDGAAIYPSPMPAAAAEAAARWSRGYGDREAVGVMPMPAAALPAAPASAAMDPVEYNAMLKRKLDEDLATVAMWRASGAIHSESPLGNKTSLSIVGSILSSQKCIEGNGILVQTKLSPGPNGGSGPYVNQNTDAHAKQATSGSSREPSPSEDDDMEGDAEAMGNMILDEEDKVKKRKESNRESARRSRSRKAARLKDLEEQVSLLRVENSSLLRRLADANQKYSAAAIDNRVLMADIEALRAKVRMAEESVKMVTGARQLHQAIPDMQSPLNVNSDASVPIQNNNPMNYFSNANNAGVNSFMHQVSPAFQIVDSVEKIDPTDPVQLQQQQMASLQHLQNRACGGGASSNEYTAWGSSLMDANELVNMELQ
Description: protein-binding microarray (RPBM); PBS, 2% BSA, 51.3 ng/ul salmon testes DNA, 50 uM zinc acetate, 200 nM TF, 25 C, 1 h; high values mean tight binding. To be noted: protein: recombinant; tags: N-terminal polyhistidine and DsRed monomer fusion (pET32a); chain copies: 2; label: CyDye5-dUTP incorporated in the synthesized complementary strand; 3' TTTTT single-stranded linker to array surface; dsDNA, one strand shown. The procedure, abridged:
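Transcription factors were made in E. coli BL21-CodonPlus as N-terminal fusions to a polyhistidine tag and DsRed, then purified on Ni–NTA. After primer extension with Cy5-dUTP and blocking with 2% BSA, a custom Agilent array was exposed for 1 h at 25 °C to 200 nM protein in PBS, 2% BSA, salmon testes DNA and 50 µM zinc acetate. Washed arrays were scanned on an Axon 4000B, and the binding signal is per-feature fluorescence intensity in arbitrary units.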
As to “TGCATGTACGATACTGGAGCTGATCCTCGCCATCATATCCCGGAGTCACCTAGTGCAG”, the binding signal was 3160 fluorescence intensity (a.u.).
With “TTGATACCTAAGCTGAGTCAGCATGTGGGCCCCACCTGCACGGAGTCACCTAGTGCAG” the figure was 13300 fluorescence intensity (a.u.); with “CAATGGCCGTAGCGTCAAGCCACGTAACGATAACACGCAACGGAGTCACCTAGTGCAG”, 9020 fluorescence intensity (a.u.).
With “CCAGTCCAATCGATTCCAACTCTCTCTAGTGACCACTCGACGGAGTCACCTAGTGCAG” the figure was 3150 fluorescence intensity (a.u.); with “ACCGCCGCGGACGCGGATCCTCATGTCGATGTCCTTGAAGCGGAGTCACCTAGTGCAG”, 36800 fluorescence intensity (a.u.).
For the sequence “GCTCGCCTGACAAAGTCGGCCACGCAAGCTGAAACACGGACGGAGTCACCTAGTGCAG”, the binding signal was 6760 fluorescence intensity (a.u.).
With “CCTGAAGCGAACGCGCGGCGCGCGCGCGCGCGTGGCGGCGCGGAGTCACCTAGTGCAG” the figure was 4050 fluorescence intensity (a.u.); with “GTACTAGTATTTGGCTATAAATTTCTGTGATTACTCAGTGCGGAGTCACCTAGTGCAG”, 3280 fluorescence intensity (a.u.).
“TAGACTAAAATAAACATTCAAATAGCGGGACGTGACACGTCGGAGTCACCTAGTGCAG”: the binding signal was 3820 fluorescence intensity (a.u.).
Turning to “GAAGGAGAGGAGGAGAGGAGAGGAGAGAGGGAGGCAGCAGCGGAGTCACCTAGTGCAG”, the binding signal is 3280 fluorescence intensity (a.u.).
Turning to “CCTGCGCGCTCCGCCACGTGCGCCTCTTCTCCCCGCCTCCCGGAGTCACCTAGTGCAG”, the binding signal was 12100 fluorescence intensity (a.u.).
For the sequence “CTCTTCATCCAGCTCACTGCATAATCACACACTAATTAACCGGAGTCACCTAGTGCAG”, the binding signal is 3460 fluorescence intensity (a.u.).
For the sequence “AGGATGATGAGATGGAATGATGATAAGTGCCATGAAGCCTCGGAGTCACCTAGTGCAG”, the binding signal was 3660 fluorescence intensity (a.u.).
Regarding “CCAATAATGATAAATCCCGTGACGTAGTATACGCCTCTGTCGGAGTCACCTAGTGCAG”, the binding signal is 4590 fluorescence intensity (a.u.).
Take “ATCATAATATGAAATATGGTAATTACCATAAGAATAAAAGCGGAGTCACCTAGTGCAG”: the binding signal is 3660 fluorescence intensity (a.u.).
As for “AGGTCGGGGAAAGGATGCCGTTGGCGAGGAGGGTGGCGAGCGGAGTCACCTAGTGCAG”, the figure is 3500 fluorescence intensity (a.u.); as for “GATTGCACGTATTGTGAACGCTGACTTCATTAATCTTAAGCGGAGTCACCTAGTGCAG”, 25100 fluorescence intensity (a.u.); as for “TAAATAAACCAACTTCTGCCACTTCATTCTCTGTGGCATCCGGAGTCACCTAGTGCAG”, 3950 fluorescence intensity (a.u.).
With “CCCCGGCGCCAGCAGCGGCCTCCACGTCCCGCTCCCACTCCGGAGTCACCTAGTGCAG” the figure was 5280 fluorescence intensity (a.u.).
Consider “CTCCGAGAATCTCAGCCATTGGATATAACTTGGATGGTCCCGGAGTCACCTAGTGCAG”, for which the binding signal is 9520 fluorescence intensity (a.u.).
As to “TTTGATCACCGGTCCGGTCTTAATAACTATGTGGCAGACGCGGAGTCACCTAGTGCAG”, the binding signal is 3660 fluorescence intensity (a.u.).
On to “AAGAAGAAGGAAGACGTGCCATCGTCGTCACACGCGTACGCGGAGTCACCTAGTGCAG”, for which the binding signal was 4170 fluorescence intensity (a.u.).
Consider “CGAGAGGTACCGCGCGCTGCCGGCGGAGAAGCGGGCGAGGCGGAGTCACCTAGTGCAG”, for which the binding signal is 41500 fluorescence intensity (a.u.).
With “CGAGAGCTTCCAGACGATGTGGTCTGACTCATTTTGGTTTCGGAGTCACCTAGTGCAG” the figure was 6860 fluorescence intensity (a.u.).
On to “GTACAGTACAAATTCATGCGCCCACAATACACGTGTGCATCGGAGTCACCTAGTGCAG”, for which the binding signal was 12900 fluorescence intensity (a.u.).
“AGATCCAAACTTTGGATCTAAACACAGCCTTAGTAGTAGTCGGAGTCACCTAGTGCAG”: the binding signal is 35800 fluorescence intensity (a.u.).
On to “CTCCATCCGTTTCACAATGTAAGTCATTCTAGCATTTCACCGGAGTCACCTAGTGCAG”, for which the binding signal was 3980 fluorescence intensity (a.u.).
For the sequence “CAAGCCATGGATGCTTATAAAATGCATTCACAGTCACAGACGGAGTCACCTAGTGCAG”, the binding signal was 4260 fluorescence intensity (a.u.).
In the case of “GAGAGCTCTAGCTACAGCTATACATACGTGTACCCAACGGCGGAGTCACCTAGTGCAG”, the binding signal was 5940 fluorescence intensity (a.u.).
For the sequence “AGAAACCTGGAACATTCCTGTATTGTTGGTTGTCCCATTTCGGAGTCACCTAGTGCAG”, the binding signal is 25300 fluorescence intensity (a.u.).
On to “GCTACAGTAACCCACGTGTGCTAACGACGGATTAATTAGGCGGAGTCACCTAGTGCAG”, for which the binding signal is 5050 fluorescence intensity (a.u.).
Turning to “ACCGATGCCATCATCCACGTCATCGTCCACGTGTCACCCACGGAGTCACCTAGTGCAG”, the binding signal was 45100 fluorescence intensity (a.u.).
In the case of “AACTCACTTAAAACGGTTTAGGTTCAATCCATATCCTAACCGGAGTCACCTAGTGCAG”, the binding signal was 26400 fluorescence intensity (a.u.).
As to “GGTCTTCTCCGAGACGGGTGATTGCGTCATGGTGACCGACCGGAGTCACCTAGTGCAG”, the binding signal is 10300 fluorescence intensity (a.u.).
As for “TCGAACTGTGAGTCTGAGGTGTCCTCACCAACTTCCTTCACGGAGTCACCTAGTGCAG”, the binding signal is 4940 fluorescence intensity (a.u.).
As for “CTGCACATAATAACGTGGATGAATCTTAAACGTCCATTTACGGAGTCACCTAGTGCAG”, the figure is 47100 fluorescence intensity (a.u.).
With “GATCAGGAGGTGTGGGCTGACATGGGCACCGCCGTCAGGGCGGAGTCACCTAGTGCAG”, the binding signal was 4260 fluorescence intensity (a.u.).
As to “GATGTTTTACGCTCCCAAATATATTAATACATTGGATCACCGGAGTCACCTAGTGCAG”, the binding signal is 4110 fluorescence intensity (a.u.).
On to “ATCCCCTACTTTACTCACTGACACGTGGGCCCAAGAAATTCGGAGTCACCTAGTGCAG”, for which the binding signal was 8260 fluorescence intensity (a.u.).
As to “GTGGGTACTTAGTGTTAGTGTTGTCGTGCGTTATCCATGTCGGAGTCACCTAGTGCAG”, the binding signal was 3160 fluorescence intensity (a.u.).
“AAACGACTTTCTTTACGAGTACAGATGGAGTAATAGTTAACGGAGTCACCTAGTGCAG”: the binding signal is 26900 fluorescence intensity (a.u.).
With “TTACTACCATTGATCTGACATACTATTCCCTCAAGTTCTTCGGAGTCACCTAGTGCAG”, the binding signal is 3260 fluorescence intensity (a.u.).
